The values below are quoted from earlier work in patent US9302989B2 (priority 2010, dated 2016).

Data set [1] has as its system activated T cells. The note with it: cited from earlier work.
Data set [2] relates to vascular smooth muscle cell (VSMC). The settings on record: in vivo; cited from earlier work.
For data set [3] the following is noted: rat, in vivo; cited from earlier work.

With `O=C(/C=C/c1cccnc1)NCCCCC1CCN(C(=O)c2ccccc2)CC1` [FK866], in data set [1], the “apoptosis of activated T cells” value is recorded as “induce apoptosis” and the “proliferation of activated T cells” value is recorded as “selectively block proliferation”.
For the molecule `O=S(=O)(c1cccc2cnccc12)N1CCCNCC1` [fasudil], in data set [2], the “intimal thickening and vascular smooth muscle cell (VSMC) proliferation” value is listed as “significantly suppressed”. The “blood pressure, glucose and lipid metabolism, insulin signalling, endothelial dysfunction” value in data set [3] is “reduced blood pressure, corrected glucose and lipid metabolism, improved insulin signalling and endothelial dysfunction”.
